Experimental data published in patent publication US20250282720A1, “ALKYLSULFENYL THIOCARBONATES: PRECURSORS TO HYDROPERSULFIDES POTENTLY ATTENUATE OXIDATIVE STRESS” (The Johns Hopkins University, priority 2021, published 2025).
Where “and” joins values, the source holds several entries; their conditions need not be identical. Identical values can stand only once.

Experiments:
Type in all cases: physicochemical
[1] = RSSH generation / decomposition in the presence of N-acetyl cysteine, UPLC-MS; conditions: 100 μM, N-acetyl cysteine 500 μM, pH 7.4 ammonium bicarbonate, 37° C.
[2] = Decomposition of precursors in the presence of thiol (NAC / N-acetyl cysteine methyl ester), HPLC
Experimental: Initially, the decomposition of 1a was analyzed in the presence of 5 equiv of N-acetylcysteine (NAC) in PBS (pH 7.4) by HPLC. […] To investigate the mechanism, this reaction was monitored by UPLC-MS. […] Additionally, a small amount of unsymmetrical dialkyl polysulfide (pink highlight, R^1SSnSR^2, n=0-3) is observed, likely formed via NAC reaction with symmetrical dialkyl polysulfides (Scheme 1-5, eq. 7). As expected, a new peak at 5.65 min corresponding to N-acetyl cysteine-thiocarbonate 9a also is observed, confirming thiol attack at the perthiocarbonate carbonyl carbon of 1a to release RSSH. Due to the unstable nature of RSSH under these experimental conditions, the yield of the by-product 9a was measured as an indication of RSSH yield. The observation of RSSH-derived polysulfides formation as major products led us to anticipate the efficient formation of by-product 9a. […] The lower observed yield of 9a is likely due to its further reaction with RSSH under these conditions. […]
To a solution of N-acetyl cysteine methyl ester (500 μM) in pH 7.4 phosphate buffer saline (100 mM) containing DTPA (100 μM), precursor 1a or 8 (100 μM) was added. […] At different time points, an aliquot of the reaction mixture (500 μL) was withdrawn and transferred to pre-cooled 0.1% formic acid (500 μL) and analyzed using HPLC. […]

[3] = COS release from RSSH precursors in the presence of thiols, MIMS; conditions: 50 μM, PBS pH 7.4, 37° C.
[4] = Kinetics of RSSH release (precursor hydrolysis) in the presence of MMTS, monitored by HPLC; conditions: precursor 100 μM, MMTS 1 mM, pH 7.4 PBS, 37° C.
Experimental: After confirming RSSH generation from 1a, the kinetics of RSSH release from alkylsulfenyl thiocarbonates in the presence of MMTS was analyzed by high-performance liquid chromatography (HPLC). Due to the lack of a chromophore in MMTS adduct 7, the decay of the RSSH precursor and formation of the corresponding phenol byproduct was monitored. First-order rate constants were obtained by plotting the precursor decay and phenol byproduct formation as a function of time. […] The observation of similar rate constants for both 1a decay and phenol (4a) formation indicates a rapid reaction of relased RSSH with MMTS, and that these observed rate constants indicate the RSSH release rate. Importantly, 92% of the byproduct phenol 4a is observed. In addition, the effect of pH on the kinetics of RSSH release also was examined.
The RSSH release kinetics for precursors containing a variety of para-substituted phenols were then compared. It was hoped to decrease the rate of RSSH release through the introduction of electron-donating groups. Indeed, a small decrease in the RSSH release rate from 1b, equipped with a 4-Me substituent (137±4 min) (Table 1) was observed.
MMTS (100 μL, 50 mM) was added in pH 7.4 phosphate buffer saline (4.85 mL) containing the DTPA (100 μM) as metal chelator. This solution was preincubated for 10 min at 37° C. and then precursor 1a-f or 8 (50 μL, 10 mM) were independently added into the mixture (total volume=5 mL). The resulting solution was incubated at 37° C. At different time points, an aliquot of 300 μL was taken and quenched with 300 μL 0.1% formic acid solution. These samples were stored at 0° C. until HPLC analysis was performed. The sample (20 μL) was injected into a high-performance liquid chromatography (HPLC) equipped with Phenomenex C-18 reverse phase column (250 mm×4.6 mm, 5 μm). HPLC Method: mobile phase A (H2O) and mobile phase B (ACN), flow rate: 1 mL/min, run time: 21 min, the gradient elution method: 10% to 70% B from 0 to 10 min, 70% to 90% B from 10 to 21 min. The elution was monitored by a UV detector at 240 and 275 nm. First-order rate constants were obtained by plotting the precursor decay and phenol by-product formation as a function of time.

[5] = RSSH generation trapped with HPE-IAM or MMTS, UPLC-MS; conditions: pH 7.4 ammonium bicarbonate buffer, 37° C.

Row | SMILES | products / RSSH generation in the presence of thiol [1] | 4a-f yield (%), phenol by-product [4] | also measured
1 | COC(=O)C(NC(C)=O)C(C)(C)SSC(=O)OCc1ccccc1 (stereo not drawn) [Precursor 8, Methyl 2-acetamido-3-(((benzyloxy)carbonyl)disulfaneyl)-3-methylbutanoate] | releases RSSH even in the presence of thiol |  | decomposition rate in the presence of thiol with respect to 1a ([2]; in the presence of thiol): about six times slower; COS generation in the presence of thiol (comparison) ([3]; NAC 0.25 mM): slower COS generation
2 | COC(=O)C(NC(C)=O)C(C)(C)SSC(=O)Oc1ccc(C)cc1 (stereo not drawn) [Precursor 1b, Methyl 2-acetamido-3-methyl-3-(((p-tolyloxy)carbonyl)disulfaneyl)butanoate] |  | 93 ± 4% | 
3 | COC(=O)C(NC(C)=O)C(C)(C)SSC(=O)Oc1ccccc1 (stereo not drawn) [Precursor 1a, Methyl 2-acetamido-3-methyl-3-((phenoxycarbonyl)disulfaneyl)butanoate] | predominantly produces RSSH | 92% and 92 ± 2% | formation of by-product 9a (indication of RSSH yield) ([2]; 5 equiv of N-acetylcysteine methyl ester): 53%; COS production with respect to precursor 13 ([3]; NAC 0.25 mM (5 equiv)): approximately 20%; RSSH generation, trapping with HPE-IAM ([5]; 10 equiv HPE-IAM): RSS-HPE-AM 5 formation; RSSH generation, trapping with MMTS ([5]; 10 equiv MMTS): RSS-S-Me 7 formation with no evidence of dialkyl trisulfide 6
4 | COC(=O)C(NC(C)=O)C(C)(C)SSC(=O)Oc1ccc(C(F)(F)F)cc1 (stereo not drawn) [Precursor 1e, Methyl 2-acetamido-3-methyl-3-(((4-(trifluoromethyl)phenoxy)carbonyl)disulfaneyl)butanoate] |  | 97 ± 1% | 
5 | COC(=O)C(NC(C)=O)C(C)(C)SSC(=O)Oc1ccc(OC)cc1 (stereo not drawn) [Precursor 1c, Methyl 2-acetamido-3-(((4-methoxyphenoxy)carbonyl)disulfaneyl)-3-methylbutanoate] |  | 92 ± 1% | 
6 | COc1ccc(OC(=O)SSCc2ccccc2)cc1 [Compound 13, SS-benzyl O-(4-methoxyphenyl)carbono(dithioperoxoate), reference compound] | exclusive unsymmetrical disulfide 14 formation |  | 
7 | COC(=O)C(NC(C)=O)C(C)(C)SSC(=O)Oc1ccc(C#N)cc1 (stereo not drawn) [Precursor 1f, Methyl 2-acetamido-3-(((4-cyanophenoxy)carbonyl)disulfaneyl)-3-methylbutanoate] |  | 97 ± 2% | 
8 | COC(=O)C(NC(C)=O)C(C)(C)SSC(=O)Oc1ccc(F)cc1 (stereo not drawn) [Precursor 1d, Methyl 2-acetamido-3-(((4-fluorophenoxy)carbonyl)disulfaneyl)-3-methylbutanoate] |  | 96 ± 6% | 
